According to article PMC10915268 (Parasites, Hosts and Diseases, 2024):

Tests used:
[1] = tested on: P. falciparum 3D7 (CQ-sensitive strain); experiment: In vitro antimalarial activity, P. falciparum 3D7; type: cell-based; conditions: Plasmodium falciparum, 3D7, read-out: 3D7 IC50
[2] = tested on: P. falciparum K1 (CQ-resistant strain); experiment: In vitro antimalarial activity, P. falciparum K1; type: cell-based; conditions: Plasmodium falciparum, K1, read-out: K1 IC50

## CCN(CC)CCCC(C)Nc1ccnc2cc(Cl)ccc12 (centres unmarked) [CQ, Chloroquine]
[1]
  IC50: 0.0222 ± 0.0112 µM
[2]
  IC50: 0.104 ± 0.0149 µM
